Taken from: PubChem BioAssay AID504784 (Drosophila RNAi Screening Center, 2011)
Screen: 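Search for regulators of lipid droplet storage in oleate-fed fly cells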 (primary screen). System: Drosophila Kc167 embryonic cells. Reagent: long dsRNA against Drosophila genes, about 250 ng dsRNA per well. Timing: 4 days. Treatment: cells fed 400 µM oleic acid bound to BSA. Read-out: 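Microscope images give a droplet-to-nucleus area ratio, taken as log and converted to a screen-wide B-score; higher values mean greater lipid storage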. Scale: droplet/nuclear area B-score: higher = more stored lipid (overstorage).
In all, the deposit lists about 17,000 reagents; this is a random part of those that have a named target and a result. 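Each column is one replicate's B-score; the combined score over replicates was not deposited, so single values may mislead.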 Reagents against one gene are numbered here. Names joined by + are all predicted targets of the reagent. Further read-outs or replicates are left out here.

The first 8 entries, ahead of the listing:
droplet/nuclear area B-score, replicate 1	droplet/nuclear area B-score, replicate 2	gene	reagent
-0.0364	7.49	CG9467	1
-2.26	-0.919	TwdlT (TweedleT)	1
-0.334	2.77	TwdlT (TweedleT)	2
0.632	0.116	Burs (Bursicon)	1
1.08	1.56	EMC4 (ER membrane protein complex subunit 4)	1
0.969	0.668	CG34396	1
-0.1	0.489	CG34396	2
0.506	-1.74	Grx3 (Glutaredoxin 3)	1

The list itself, repeating the preview:
droplet/nuclear area B-score, replicate 1	droplet/nuclear area B-score, replicate 2	gene	reagent
-0.0364	7.49	CG9467	1
-2.26	-0.919	TwdlT (TweedleT)	1
-0.334	2.77	TwdlT (TweedleT)	2
0.632	0.116	Burs (Bursicon)	1
1.08	1.56	EMC4 (ER membrane protein complex subunit 4)	1
0.969	0.668	CG34396	1
-0.1	0.489	CG34396	2
0.506	-1.74	Grx3 (Glutaredoxin 3)	1
-2.2	-0.789	Nlg2 (Neuroligin 2)	1
0.025	-0.133	CG14020	1
0.00245	-0.483	CG7714	1
0.839	-0.195	Nep6 (Neprilysin 6)	1
-0.238	-0.0507	corn (cornetto)	1
0.263	-0.165	corn (cornetto)	2
1.46	-0.47	LanB1	1
-2.42	-2.77	CG15876	1
0.502	-0.647	CG14770	1
-0.0552	-1.35	Tsp74F (Tetraspanin 74F)	1
-0.623	-0.85	CG10991 (retired record)	1
0.408	-0.725	CG14260	1
0.917	0.226	CG32845	1
1.96	0.984	CG3419 (retired record)	1
-0.477	1.51	CG3419 (retired record)	2
-0.00988	0.633	CG13544	1
0.183	-0.231	GstD3 (Glutathione S transferase D3)	1
-1.77	-1.19	boly (borrelly)	1
0.00298	0.439	CG9213	1
0.578	0.551	CR33283 (pseudo)	1
0.636	0.334	Nhe1 (Na[+]/H[+] hydrogen exchanger 1)	1
-0.0762	-0.319	Cep164 (centrosomal protein 164)	1
0.153	-0.689	CG13369	1
-1.27	0.212	CG34423 + Mthfs	1
-0.564	0.0319	Rab14	1
-0.0273	-0.625	Cc2d2a (Coiled-coil and C2 domain containing 2A)	1
0.363	-0.416	Cc2d2a (Coiled-coil and C2 domain containing 2A)	2
3.28	2.64	disp (dispatched)	1
0.459		CG11417	1
0.306	0.189	CG30398	1
-1.06	-0.958	CG17147	1
2.48		fid (fire dancer)	1
-0.68	-1.17	fid (fire dancer)	2
-1.49	-0.142	unk (unkempt)	1
0.843	-0.99	CG6511	1
0.423	-2.97	Jon25Biii (Jonah 25Biii)	1
-0.61	0.629	SCaMC	1
1.96	1.88	SCaMC	2
1.19	3.12	cal1 (chromosome alignment defect 1)	1
0.107	0.013	CG17721	1
1.19	1.12	mRpS2 (mitochondrial ribosomal protein S2)	1
-2.06	-1.97	CG3726	1
1.1	-0.357	CG3726	2
-0.725	-0.0366	ACXE (Adenylyl cyclase X E)	1
3.29	2	Obp19d (Odorant-binding protein 19d)	1
-1.99	-1.23	CG17776	1
	0.345	Hr38 (Hormone receptor-like in 38)	1
-0.0451	-0.393	Hr38 (Hormone receptor-like in 38)	2
-0.0321	0.627	Naam (Nicotinamide amidase)	1
0.526	0.0438	CG17344	1
0.529	0.0439	Spn75F (Serpin 75F)	1
-0.72		CG11403	1
2.85	-0.343	TfAP-2 (Transcription factor AP-2)	1
3.99	-5.09	CG43737	1
1.98	1.94	CG12360 (retired record)	1
1.34	2.4	Sid (Stress induced DNase)	1
-0.464	-0.513	CG11456	1
-0.56	-1.35	E5	1
0.0472	2.11	E5	2
-1.93	-0.699	E5	3
-1.1	-0.936	dpr1 (defective proboscis extension response 1)	1
-0.867	-1.22	IP3K2 (Inositol 1,4,5-triphosphate kinase 2)	1
-0.618	0.291	IP3K2 (Inositol 1,4,5-triphosphate kinase 2)	2
0.0281	-0.552	IP3K2 (Inositol 1,4,5-triphosphate kinase 2)	3
0.84	0.826	Cyp12a5 (Cytochrome P450 12a5)	1
-0.122	-0.197	Ziz (Zizimin)	1
-0.81	0.199	Ziz (Zizimin)	2
-1.35	1.63	ATPCL (ATP citrate lyase)	1
0.191	-1.09	jus (julius seizure)	1
0.614	-0.822	jus (julius seizure)	2
1.31	-1.07	jus (julius seizure)	3
1.26	0.976	Buffy	1
-0.433	1.19	CG13022	1
1.51	1.43	Vps11 (Vacuolar protein sorting 11)	1
-3.18	1.96	Vps11 (Vacuolar protein sorting 11)	2
